Test [1] has as its target T1, BASL, full-length, fused with Gal4 DNA-binding domain (Arabidopsis thaliana) (UniProt Q5BPF3).
T1 sequence: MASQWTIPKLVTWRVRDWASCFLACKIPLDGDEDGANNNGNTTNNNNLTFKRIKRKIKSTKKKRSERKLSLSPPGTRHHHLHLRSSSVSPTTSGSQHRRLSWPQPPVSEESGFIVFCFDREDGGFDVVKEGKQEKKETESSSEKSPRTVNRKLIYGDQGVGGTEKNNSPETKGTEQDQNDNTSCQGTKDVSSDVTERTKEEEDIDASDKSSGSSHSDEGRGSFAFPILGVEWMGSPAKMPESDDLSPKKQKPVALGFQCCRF
Put plainly: two-hybrid; pairwise; bait in pGBKT7 (BD), prey in pGADT7 (AD), strain AH109; tested on SD/-Leu/-Trp/-His, 3 days at 30 °C; 3-AT where needed.

By UniProt entry, the sequences of proteins in these tests, tags left out. Where a name states a change or a piece, a line headed by the entry shows the natural chain unless it says otherwise.
UniProt A0A1P8BCA2: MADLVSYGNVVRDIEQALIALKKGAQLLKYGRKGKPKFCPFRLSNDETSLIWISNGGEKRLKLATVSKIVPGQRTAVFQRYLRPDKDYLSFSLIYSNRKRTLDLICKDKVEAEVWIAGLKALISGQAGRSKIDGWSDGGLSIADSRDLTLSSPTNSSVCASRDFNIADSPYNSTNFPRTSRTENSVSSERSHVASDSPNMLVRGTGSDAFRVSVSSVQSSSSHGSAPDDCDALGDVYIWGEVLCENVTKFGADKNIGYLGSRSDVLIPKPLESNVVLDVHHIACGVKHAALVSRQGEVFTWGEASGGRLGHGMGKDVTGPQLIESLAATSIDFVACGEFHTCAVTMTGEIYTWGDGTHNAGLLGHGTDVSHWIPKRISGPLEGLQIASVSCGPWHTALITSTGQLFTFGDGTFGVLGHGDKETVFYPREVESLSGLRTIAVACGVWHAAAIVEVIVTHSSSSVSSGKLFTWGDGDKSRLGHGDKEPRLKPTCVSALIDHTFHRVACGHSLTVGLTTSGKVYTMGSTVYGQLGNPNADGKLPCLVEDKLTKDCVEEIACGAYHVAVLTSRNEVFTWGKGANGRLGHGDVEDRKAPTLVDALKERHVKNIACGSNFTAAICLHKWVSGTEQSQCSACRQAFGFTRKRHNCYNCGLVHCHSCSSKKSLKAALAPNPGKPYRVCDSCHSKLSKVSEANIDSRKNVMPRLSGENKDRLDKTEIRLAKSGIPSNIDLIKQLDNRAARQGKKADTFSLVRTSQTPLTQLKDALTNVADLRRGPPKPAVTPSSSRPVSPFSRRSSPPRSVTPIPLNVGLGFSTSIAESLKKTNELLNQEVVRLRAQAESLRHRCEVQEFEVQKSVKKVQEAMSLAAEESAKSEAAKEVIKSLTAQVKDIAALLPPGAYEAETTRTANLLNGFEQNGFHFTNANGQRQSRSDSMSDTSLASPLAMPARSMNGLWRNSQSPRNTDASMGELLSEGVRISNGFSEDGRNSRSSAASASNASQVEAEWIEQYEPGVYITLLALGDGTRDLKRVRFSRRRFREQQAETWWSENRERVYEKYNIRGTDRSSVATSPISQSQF
UniProt F4K0X5: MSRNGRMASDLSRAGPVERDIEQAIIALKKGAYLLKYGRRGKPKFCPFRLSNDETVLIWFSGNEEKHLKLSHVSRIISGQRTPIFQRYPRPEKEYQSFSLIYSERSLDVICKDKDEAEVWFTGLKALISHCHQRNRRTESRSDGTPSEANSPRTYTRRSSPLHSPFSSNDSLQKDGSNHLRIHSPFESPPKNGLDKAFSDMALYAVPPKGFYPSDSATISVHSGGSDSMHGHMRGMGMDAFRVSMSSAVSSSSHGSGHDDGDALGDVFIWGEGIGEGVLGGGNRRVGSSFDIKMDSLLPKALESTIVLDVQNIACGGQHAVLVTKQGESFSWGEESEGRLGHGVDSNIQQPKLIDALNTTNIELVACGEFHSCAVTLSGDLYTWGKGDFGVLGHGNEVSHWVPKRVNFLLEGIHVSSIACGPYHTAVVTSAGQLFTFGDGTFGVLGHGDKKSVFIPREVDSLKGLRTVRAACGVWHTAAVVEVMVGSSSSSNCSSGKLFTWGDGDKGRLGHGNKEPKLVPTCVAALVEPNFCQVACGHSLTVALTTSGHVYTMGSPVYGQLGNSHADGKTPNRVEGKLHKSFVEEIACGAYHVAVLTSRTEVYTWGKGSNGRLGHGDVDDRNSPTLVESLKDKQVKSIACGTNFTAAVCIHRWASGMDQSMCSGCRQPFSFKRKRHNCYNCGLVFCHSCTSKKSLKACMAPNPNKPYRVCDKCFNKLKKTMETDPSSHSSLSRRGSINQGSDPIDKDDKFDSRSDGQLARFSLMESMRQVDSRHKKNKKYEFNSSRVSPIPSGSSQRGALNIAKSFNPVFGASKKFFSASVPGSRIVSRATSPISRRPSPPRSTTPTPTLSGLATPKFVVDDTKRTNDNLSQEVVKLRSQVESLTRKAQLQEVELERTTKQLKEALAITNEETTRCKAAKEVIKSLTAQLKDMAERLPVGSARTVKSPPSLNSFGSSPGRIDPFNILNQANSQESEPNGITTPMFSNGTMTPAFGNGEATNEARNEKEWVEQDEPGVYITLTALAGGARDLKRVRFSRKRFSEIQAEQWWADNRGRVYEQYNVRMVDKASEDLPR

In test [2] the target is T2, BASL fused with a split YFP half (BiFC) (Arabidopsis thaliana) (UniProt Q5BPF3).
T2 sequence: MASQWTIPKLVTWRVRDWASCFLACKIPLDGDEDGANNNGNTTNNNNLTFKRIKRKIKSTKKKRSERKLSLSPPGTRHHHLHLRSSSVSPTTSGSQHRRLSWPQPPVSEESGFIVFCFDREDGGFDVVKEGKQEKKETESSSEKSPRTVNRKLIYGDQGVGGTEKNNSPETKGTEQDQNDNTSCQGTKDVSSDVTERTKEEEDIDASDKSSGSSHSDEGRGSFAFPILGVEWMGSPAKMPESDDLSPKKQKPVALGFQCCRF
Put plainly: split reporter; BiFC (nYFP/cYFP) in N. benthamiana leaf epidermal cells, imaged three to five days after infiltration.

Test [3] concerns the target GNOM fused with a split YFP half (BiFC) (Arabidopsis thaliana). The test is described as above.
Test [4] has as its target GNOM_N (N-terminal half of GNOM), fused with Gal4 DNA-binding domain (Arabidopsis thaliana). Put plainly: two-hybrid; pairwise; bait in pGBKT7 (BD), prey in pGADT7 (AD), strain AH109; tested on SD/-Leu/-Trp/-His, 3 days at 30 °C; 3-AT where needed.
Test [5] addresses GNOM_C (C-terminal half of GNOM), fused with Gal4 DNA-binding domain (Arabidopsis thaliana). The test is described as above.
Test [6] addresses BASL_N (N-terminal domain of BASL), yeast two-hybrid fusion (Arabidopsis thaliana). The test is described as above.
For test [7], the target named is BASL_I (internal domain of BASL), yeast two-hybrid fusion (Arabidopsis thaliana). The description is as above.
The target in test [8] is BASL_C (C-terminal domain of BASL), yeast two-hybrid fusion (Arabidopsis thaliana). The test is described as above.

This passage reports binding results from PMC8748900.

These are yes or no findings as the source states them, for the method shown. For some assays here: Binding calls can cover weak binding; strength is not graded here. Sequences can lack the tags named with a protein. For some assays here: In cells and extracts the contact can be indirect.

As for “BRX domain of PRAF5/RLD4, fused with Gal4 activation domain (Arabidopsis thaliana) (domain or fragment)”, the binding entry in test [1] is given as “binds”.
Still for that read-out and setting: the same measure for “BRX domain of PRAF8/RLD2, fused with Gal4 activation domain (Arabidopsis thaliana) (domain or fragment)”: “binds”; for “BRX domain of PRAF9/RLD3, fused with Gal4 activation domain (Arabidopsis thaliana) (domain or fragment)”: “binds”.
Turning to “PRAF4ΔBRX (genomic PRAF4 with BRX domain deletion) fused with a split YFP half (BiFC) (from UniProt Q947D2)”, the binding entry in test [2] is reported as “no binding”.
As to “PRAF4▵RCC1 (PRAF4 with the RCC1 domain deleted), yeast two-hybrid fusion (from UniProt Q947D2)”, the binding entry in test [1] was “binds”.
Turning to “PRAF5 fused with a split YFP half (BiFC) (from UniProt A0A1P8BCA2)”, the binding result in test [2] is “binds”.
Still for that read-out and setting: the same measure for “PRAF8 fused with a split YFP half (BiFC) (from UniProt F4K0X5)”: “binds”.
On the same count and under the same terms, the same measure for “PRAF9 fused with a split YFP half (BiFC) (Arabidopsis thaliana)”: “binds”.

B1: PRAF4 fused with a split YFP half (BiFC) (protein, UniProt Q947D2 1-1103)
chain: MADLVTYSNADHNLEQALITLKKGTQLLKYGRKGKPKFYPFRLSSDEKSLIWISSSGEKRLKLASVSKIVPGQRTAVFQRYLRPEKDYLSFSLLYNGKKKSLDLICKDKVEAEIWIGGLKTLISTGQGGRSKIDGWSGGGLSVDASRELTSSSPSSSSASASRGHSSPGTPFNIDPITSPKSAEPEVPPTDSEKSHVALDNKNMQTKVSGSDGFRVSVSSAQSSSSHGSAADDSDALGDVYIWGEVICDNVVKVGIDKNASYLTTRTDVLVPKPLESNIVLDVHQIACGVRHAAFVTRQGEIFTWGEESGGRLGHGIGKDVFHPRLVESLTATSSVDFVACGEFHTCAVTLAGELYTWGDGTHNVGLLGHGSDISHWIPKRIAGSLEGLHVASVSCGPWHTALITSYGRLFTFGDGTFGVLGHGDKETVQYPREVESLSGLRTIAVSCGVWHTAAVVEIIVTQSNSSSVSSGKLFTWGDGDKNRLGHGDKDPRLKPTCVPALIDYNFHKIACGHSLTVGLTTSGQVFTMGSTVYGQLGNLQTDGKLPCLVEDKLASEFVEEISCGAYHVAALTSRNEVYTWGKGANGRLGHGDLEDRKVPTIVEALKDRHVKYIACGSNYTAAICLHKWVSGAEQSQCSTCRLAFGFTRKRHNCYNCGLVHCHSCSSKKAFRAALAPSAGRLYRVCDSCYVKLSKVSEINDTNRRNSAVPRLSGENRDRLDKSEIRLAKFGTSNMDLIKQLDSKAAKQGKKTDTFSLGRNSQLPSLLQLKDAVQSNIGDMRRATPKLAQAPSGISSRSVSPFSRRSSPPRSATPMPSTSGLYFPVGIADNMKKTNEILNQEIVKLRTQVDSLTQKCEFQEVELQNSVKKTQEALALAEEESAKSRAAKEAIKSLIAQLKDVAEKLPPGESVKLACLQNGLDQNGFHFPEENGFHPSRSESMTSSISSVAPFDFAFANASWSNLQSPKQTPRASERNSNAYPADPRLSSSGSVISERIEPFQFQNNSDNGSSQTGVNNTNQVEAEWIEQYEPGVYITLVALHDGTRDLRRVRFSRRRFGEHQAETWWSENREKVYEKYNVRVSEKSTASQTHRDRDEEEEDIPH
B1: the binding entry in test [3] is “binds”.

B2: PRAF4/RLD1, full-length, yeast two-hybrid fusion (protein, UniProt Q947D2 1-1103)
chain: MADLVTYSNADHNLEQALITLKKGTQLLKYGRKGKPKFYPFRLSSDEKSLIWISSSGEKRLKLASVSKIVPGQRTAVFQRYLRPEKDYLSFSLLYNGKKKSLDLICKDKVEAEIWIGGLKTLISTGQGGRSKIDGWSGGGLSVDASRELTSSSPSSSSASASRGHSSPGTPFNIDPITSPKSAEPEVPPTDSEKSHVALDNKNMQTKVSGSDGFRVSVSSAQSSSSHGSAADDSDALGDVYIWGEVICDNVVKVGIDKNASYLTTRTDVLVPKPLESNIVLDVHQIACGVRHAAFVTRQGEIFTWGEESGGRLGHGIGKDVFHPRLVESLTATSSVDFVACGEFHTCAVTLAGELYTWGDGTHNVGLLGHGSDISHWIPKRIAGSLEGLHVASVSCGPWHTALITSYGRLFTFGDGTFGVLGHGDKETVQYPREVESLSGLRTIAVSCGVWHTAAVVEIIVTQSNSSSVSSGKLFTWGDGDKNRLGHGDKDPRLKPTCVPALIDYNFHKIACGHSLTVGLTTSGQVFTMGSTVYGQLGNLQTDGKLPCLVEDKLASEFVEEISCGAYHVAALTSRNEVYTWGKGANGRLGHGDLEDRKVPTIVEALKDRHVKYIACGSNYTAAICLHKWVSGAEQSQCSTCRLAFGFTRKRHNCYNCGLVHCHSCSSKKAFRAALAPSAGRLYRVCDSCYVKLSKVSEINDTNRRNSAVPRLSGENRDRLDKSEIRLAKFGTSNMDLIKQLDSKAAKQGKKTDTFSLGRNSQLPSLLQLKDAVQSNIGDMRRATPKLAQAPSGISSRSVSPFSRRSSPPRSATPMPSTSGLYFPVGIADNMKKTNEILNQEIVKLRTQVDSLTQKCEFQEVELQNSVKKTQEALALAEEESAKSRAAKEAIKSLIAQLKDVAEKLPPGESVKLACLQNGLDQNGFHFPEENGFHPSRSESMTSSISSVAPFDFAFANASWSNLQSPKQTPRASERNSNAYPADPRLSSSGSVISERIEPFQFQNNSDNGSSQTGVNNTNQVEAEWIEQYEPGVYITLVALHDGTRDLRRVRFSRRRFGEHQAETWWSENREKVYEKYNVRVSEKSTASQTHRDRDEEEEDIPH
Turning to B2, the binding result in test [4] and in test [5] was “no binding” each time.

B3: PRAF4_BRX (BRX domain of PRAF4/RLD1), fused with Gal4 activation domain (domain or fragment, UniProt Q947D2 1023-1078)
chain: AEWIEQYEPGVYITLVALHDGTRDLRRVRFSRRRFGEHQAETWWSENREKVYEKYN
For B3, the figures for the binding entry in test [6], in test [7] and in test [8] were “no binding”, “binds” and “no binding”, respectively.
